Results published in patent publication US20120076788A1, “C-CBL AND ANTAGONISTS THEREOF FOR THE TREATMENT AND DIAGNOSIS OF CANCER” (Centre National De La Recherche Scientifique (C.N.R.S.), priority 2009, published 2012).
For at least one compound, name, drawing or mass did not settle the structure.

What was measured:
c-Cbl [1] = test: c-Cbl expression (Western blotting, RT-PCR) in prostate lobes of adult rats exposed to flutamide; type: in vivo, rat
Bim EL = Bim EL expression in rat ventral prostate upon flutamide treatment (western blotting, in situ); type: in vivo
c-IAP2 = c-IAP2 expression in rat ventral prostate upon flutamide treatment; type: in vivo; conditions: 48 hours of flutamide treatment, stayed level after longer treatment
c-Cbl [2] = test: In situ c-Cbl staining of rat prostate after flutamide treatment; type: in vivo; conditions: 96 H of 10mg/kg/day; compared to untreated control
[3] = test system: c-Cbl KO and WT Mouse Embryonic Fibroblasts (MEF); test: Western blotting of apoptosis proteins in c-Cbl KO and WT MEFs treated with apoptotic inducers; type: cell-based; conditions: KO and WT cells, apoptotic activation
Experimental: The western blotting (WB) experiments, immunohistochemistry (IHC) experiments and RT PCR experiments, with coamplification of the S 20 ribosomal gene, were carried out according to conventional methods already described in e.g. Omezzine et al. (2003, Biol. Reprod., 69: 752-760), Bozec et al. (2004, J. Endocr., 183: 79-90) and El Chami et al. (2005, J. Cell. Biol., 651-661).
The MEFs KO for c-cbl and the MEFs WT were cultured in DMEM, 10% FCS. The apoptosis inducers were used at a final concentration of 0.5 mM in case of H2O2, and at 10 μM in case of etoposide. The cells were tested for apoptosis 24 hours after treatment. The human prostate cancer lines were transfected with 125 nM of c-cbl IRNA for 6 hours, and were tested for quenching of c-cbl expression 24 or 48 hours after transfection. The treatment was the same with RAT1-MEN2A cells.
Each of them are known to involve different signaling routes, both leading to the mitochondrial pathway of apoptosis. Hydrogen peroxide activates C-Jun Kinase, whereas Etoposide blocks topoisomerase II causing dsDNA breaks and DNA-PK/p53 activation (DeYulia et al. 2005 Proc Natl Acad Sci USA 102:5044-9; Kamata and Hirata 1999 Cell Signal 11:1-14; Karpinich et al. 2002 J Biol Chem 277:16547-52).

With `CC(C)C(=O)Nc1ccc([N+](=O)[O-])c(C(F)(F)F)c1` [flutamide] the “c-cbl expression in ventral prostate, dose/effect” value (c-Cbl [1]; 10 mg/kg/day, relative to control) was “one third”, the “c-cbl mRNA expression in ventral prostate” value (c-Cbl [1]; adult rats, flutamide 10 mg/kg/day, two days of treatment) was “affected” and the “c-Cbl protein expression in ventral prostate” value (c-Cbl [1]; adult rats, flutamide force-feeding 10 mg/kg/day, three days, relative to control) was “about one half”. For the same compound, the “c-Cbl expression in caudal and dorsal prostate lobes” value (c-Cbl [1]; whatever the length of flutamide treatment) was “no difference”, the “Bim EL expression (western blotting)” value (Bim EL; 10 mg/kg/day, detected at 72 hours, significant at 96 hours) was “increase” and the “Bim EL staining of ventral prostate luminal cells (in situ)” value (Bim EL; from 24 hours of treatment, untreated control unstained) was “clear appearance”. The c-IAP2 expression (c-IAP2) was “half time lower”, the “c-Cbl staining in ventral prostate (in situ)” value (c-Cbl [2]) was “almost complete extinction” and the “Bim EL expression” value [3] was “did neither increase”.
